For at least one compound, name, drawing or mass did not settle the structure.
Test system: claudin-2
Assay: Claudin-2 protein expression in Caco-2 cells, western blot
Assay type: cell-based, human
Details: vitamin D 10 μM or 100 μM, geldanamycin 0.5 μM
Procedure: Caco-2 cells with a passage or about 45 (number of time they have been divided) (Sigma-Aldrich Stockholm Sweden) were cultured in Dulbecco's Modified Eagle's Medium (Life Technologies Invitrogen AB, Lidingo, Sweden), with 10% Foetal Bovine Serum (FBS) (Life Technologies), 1% Non Essential Amino Acid (NEAA) (Life Technologies), 100 IU/mL Penicillin Streptomycin (Pen-Strep) (Life Technologies). The cells were incubated in 37° C. with 5% CO2 and cultured in a cell culture flask (BD Falcon®, VWR Internationals, Stockholm, Sweden) and the medium was changed at Monday, Wednesday and Friday every week.
The cells were cultured for approximately 1 week before they were detached (0.25% trypsin-EDTA, Life Technologies) and seeded in 6 well plates with semipermeable filter inserts (3 μm pore size, BD Biosciences, Le Pont de Claix, France), 200 000 cells/well. At confluence the culture medium was changed to FBS-free in both the upper and lower well compartment and to the lower compartment also a mixture of […] insulin, 0.55 μg/mL transferring and 6.7 ng/mL selenium (ITS, Life Technologies) was added to establish cell polarity and structural differentiation (6-7). The cell monolayers were let to cultivate for 14 days before experiments. […]

With `COC1=C2C[C@@H](C)C[C@H](OC)[C@H](O)[C@@H](C)/C=C(\C)[C@H](OC(N)=O)[C@@H](OC)/C=C\C=C(/C)C(=O)NC(=CC1=O)C2=O` [geldanamycin] the claudin-2 protein expression was “suppresses claudin-2 expression”.
